Results from paper doi:10.1101/2021.02.05.429932.

Chains of the proteins cited; added tags and fusions are not shown. Lines headed by an entry give the natural chain unless they say otherwise; changes in a name come on top.
UniProt Q9VKI2: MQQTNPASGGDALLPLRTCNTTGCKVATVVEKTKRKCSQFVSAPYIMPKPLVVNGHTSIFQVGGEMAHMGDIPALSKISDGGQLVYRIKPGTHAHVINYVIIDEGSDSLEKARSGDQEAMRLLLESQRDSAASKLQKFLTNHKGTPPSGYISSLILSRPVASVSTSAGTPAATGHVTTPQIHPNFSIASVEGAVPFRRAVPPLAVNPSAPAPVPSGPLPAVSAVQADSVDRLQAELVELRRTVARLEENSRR
UniProt P05205: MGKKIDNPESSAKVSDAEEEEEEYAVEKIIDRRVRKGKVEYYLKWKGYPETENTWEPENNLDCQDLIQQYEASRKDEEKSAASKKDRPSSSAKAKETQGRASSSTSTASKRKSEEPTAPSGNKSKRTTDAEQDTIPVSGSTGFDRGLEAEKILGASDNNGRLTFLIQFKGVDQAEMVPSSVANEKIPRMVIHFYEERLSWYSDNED
UniProt Q7KRX3: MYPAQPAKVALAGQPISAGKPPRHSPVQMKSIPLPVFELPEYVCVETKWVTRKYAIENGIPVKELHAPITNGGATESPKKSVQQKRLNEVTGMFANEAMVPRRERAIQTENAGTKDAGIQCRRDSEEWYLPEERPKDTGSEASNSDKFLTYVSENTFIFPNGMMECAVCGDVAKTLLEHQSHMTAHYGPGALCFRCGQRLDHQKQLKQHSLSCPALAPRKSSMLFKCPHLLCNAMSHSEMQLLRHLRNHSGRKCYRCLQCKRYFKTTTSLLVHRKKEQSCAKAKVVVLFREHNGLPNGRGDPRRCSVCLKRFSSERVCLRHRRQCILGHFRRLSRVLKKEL
UniProt Q9VAC4: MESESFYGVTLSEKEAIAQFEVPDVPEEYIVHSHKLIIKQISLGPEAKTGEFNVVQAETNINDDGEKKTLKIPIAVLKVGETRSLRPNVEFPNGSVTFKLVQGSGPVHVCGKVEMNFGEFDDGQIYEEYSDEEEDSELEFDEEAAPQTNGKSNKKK

T1: nucleoplasmin (NLP) (D. melanogaster (endogenous in SL2)) (UniProt Q27415)
T1 sequence: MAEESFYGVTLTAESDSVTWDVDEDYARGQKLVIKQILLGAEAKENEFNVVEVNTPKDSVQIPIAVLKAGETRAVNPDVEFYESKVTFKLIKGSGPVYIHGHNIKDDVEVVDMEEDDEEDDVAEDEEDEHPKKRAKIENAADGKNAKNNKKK


Key:
Assay in all cases: affinity purification with mass spectrometry
[1] = target: FLAG-HA-BOH2 (D. melanogaster) (UniProt Q9VKI2)
[2] = target: heterochromatin protein 1a (HP1a) (D. melanogaster (endogenous in SL2)) (UniProt P05205)
[3] = target: T1, nucleoplasmin (NLP) (D. melanogaster (endogenous in SL2))
[4] = target: FLAG-HA-BOH1 (D. melanogaster) (UniProt Q7KRX3)
[5] = target: FLAG-HA-Hmr^+ (D. melanogaster)
[6] = target: FLAG-HA-BOH1 (D. melanogaster) (UniProt Q7KRX3); remark: listed apart in the source
[7] = target: FLAG-HA-BOH2 (D. melanogaster) (UniProt Q9VKI2); remark: listed apart in the source
[8] = target: Hybrid male rescue (HMR) (D. melanogaster (endogenous in SL2))
[9] = target: Lethal hybrid rescue (LHR) (D. melanogaster (endogenous in SL2))
[10] = target: endogenously FLAG tagged HMR (D. melanogaster (endogenous in SL2))
[11] = target: heterochromatin protein 1a (HP1a) (D. melanogaster (endogenous in SL2)) (UniProt P05205); remark: listed apart in the source

Row | binding [2] | binding [3] | binding [5] | Molecule | other results
1 | binds | binds | – | Buddy Of Hmr 2 (BOH2) (from UniProt Q9VKI2) | binding [4]: binds
2 | binds | binds | – | nucleophosmin (NPH) (from UniProt Q9VAC4) | binding [4]: binds; binding [1]: binds
3 | – | – | binds | SU(HW) (protein, UniProt P08970 1-941) MSASKEGKEKKGKLLGVENISPPKDKRPATRMKLLNDVGAGEDSEASTTTTTSRTPSNKQEKRGSVAGSRIKILNEEILGTPKTEKRGATKSTAPAASTVKILNEKKTPSATVTAVETTKIKTSPSKRKKMEHYVLQAVKSENTKADTTVTVVTEEDDTIDFILADDEEVVPGRIENNNGQEIVVTEDDEDLGEDGDEDGEDSSGKGNSSQTKIKEIVEHVCGKCYKTFRRVQSLKKHLEFCRYDSGYHLRKADMLKNLEKIEKDAVVMEKKDICFCCSESYDTFHLGHINCPDCPKSFKTQTSYERHIFITHSEFSDFPCSICNANLRSEALLALHEEQHKSRGKPYACKICGKDFTRSYHLKRHQKYSSCSSNETDTMSCKVCDRVFYRLDNLRSHLKQHLGTQVVKKPEYMCHTCKNCFYSLSTLNIHIRTHTGEKPFDCDLCDKKFSALVALKKHRRYHTGEKPYSCTVCNQAFAVKEVLNRHMKRHTGERPHKCDECGKSFIQATQLRTHSKTHIRPFPCEQCDEKFKTEKQLERHVKTHSRTKRPVFSCAECKRNFRTPALLKEHMDEGKHSPKQQRSSMRSAVKIMERTDCAICDKNFDSSDTLRRHIRTVHECDPDDIFGVEPHPSKRAKKDIESEEVVPVALNTSAGSLISSQTDGNGVVVREFLVDEGDGAAQTITLENETYTILPLDGAIEGEQLTDEAGVKPEAKKEEAQVSPVVKKEQRKSLAASLAAAIADNLEESCSEDDFSGEILTEEDIKLKENVGKLIDMLVDPPILKKYGWPNAPEETVLCKVIENCGHDLTKGGENYAELDYGSRMREYCKLLFTVVIHNDSIKSLLNNFPIDDVIEYVLGDEDQDEGGLDKDNESHSGDEEAVSVTGETKTNEIREKPEKKEVSAKSEKKEIVGKAVDKDNSEEVVRENKKKPVGEQEKA | –
4 | – | – | binds | nucleoplasmin (NLP) (protein, UniProt Q27415 1-152) MAEESFYGVTLTAESDSVTWDVDEDYARGQKLVIKQILLGAEAKENEFNVVEVNTPKDSVQIPIAVLKAGETRAVNPDVEFYESKVTFKLIKGSGPVYIHGHNIKDDVEVVDMEEDDEEDDVAEDEEDEHPKKRAKIENAADGKNAKNNKKK | binding [6]: binds; binding [7]: binds; binding [8]: binds; binding [9]: binds; binding [10]: binds; binding [11]: binds

Continued, molecule first:

Row | Molecule | binding [2] | binding [3] | binding [5] | other results
5 | Buddy Of Hmr 1 (BOH1) (from UniProt Q7KRX3) | binds | binds | – | binding [1]: binds
6 | Hybrid male rescue (HMR) (D. melanogaster (endogenous in SL2)) | – | binds | – | –
7 | Lethal hybrid rescue (LHR) (D. melanogaster (endogenous in SL2)) | – | binds | – | –
8 | SU(VAR)3-7 (protein, UniProt P20193 1-1250) MDRDSSMQAKNLDAQCNPDLKMASANSETLASATHELKIMDVEGGALVDPDHIEEVETSMVIVVDDDDGDVAMVVEEDKHPMRDDPCIEDIMDDEHAPLVAELQSALNNPDDKQASEDPLLEDQEREPDAMSTKTEPSSDAESSHSYHDPMGLLERIEIHDPGDSQDDDDEDDESSNGGGVDGGMRRKMPRAQRWLLWMKRWPWILHEDSDGTLAFCLYCNISINVNNRSRHIQQHNVSLSHQERECNYLAFKKSEEETRGAISDNEIKHEFGTKSYVAAMKQKRISETEAFNNFNWLRWLRWHPWLERSMPTGTIGTCRICSVRMNVEFVYLRKRHETTKGHMEALRNLDSDKRSRKRKRSKSNSVTNSGGDEAEREKESEPEVGPEDAQDTPVVMMNGDVDSGDDPGKWCALIPDTNPQQCRCTLCNCTMAITSFLRHCKTRAHCHMLSTPAEKGSSDIRGIWAVFADMHPWLIADPEDPSIGYCSVCRKRFMYGNSEIKRKNHEKSEKHTLALASAKAGIEVGSADGRGGDNMDEEEAAASDQAQSSQTDDSEDNDDDNWSEIQKLGKGFAHKSSSEPRKATVRAGVRFYPWLCYSKDRKTQICKFCRVRFHNEAAKARHELSARHVKLVKQFKMRQAKLHQGTNTQTKHNAQDDEESQEQDEEYGEEEEDAEEDSQSNFDLGTVQARKTARADNKLFVKPIPATMKGKVMVWKGRFPWLSYKKNEQRGNYAWCKLCEVSLYLPSSKWASKHQRTSRHIRLRIDRKRNGGNPLKTSNKNSGEISTVVATASALASAEARQKAAMAELQAKYDWLDPDANDENHCHCRVCDSRLPIKVFYLRQHDASRKHVENKERQRANAAAAANAPSVSPTSTVDAERQESGMDKESENDMSVRSDGSTAEPLAKRSRRSMEVRRIIRALRDSMGKRQEERSQMDMARDMICSSFDIVTRLRTLERESVAHNESMAQAPPSVTVSPIKPPEPRHVMDLFFDSISPTMKSLPPDLAAEGKSKIMQLVCSLELRAMQRNATTPTPATVSASSKWPSSTTVTPVKTPPAPISAPLASVDADLHSSVVTTPHEYNNGQNNNNDKETVPKEPVTGASSAQVTINGSAKDLPENIRRILTSNQTQVTNRLETDSVRCVPLDKLTTQSRTNVNGRLSQGGTSEAPSTPQADLSNGNTLAMIRQIRVNNNNSSKITVTNTPQMQQPQQAQASITSSTPIMRGGPSSNGCQITTFRTMVNHNRRP | – | – | binds | –

Where two headings read alike, the source gives them in different places. These are yes or no findings as the source states them, for the method shown. In cells and extracts the contact can be indirect. A yes stands for co-enrichment or nearness to the bait. Other partners may have been found.
